Results are given in words; binding and its absence hold for the method and conditions named. Some results given as binding are weak or reduced against the parent protein; the word gives no strength.
Key:
Assay in all cases: peptide or protein array; HuProt human proteome microarray; 5 ug/5 ml biotin-labelled LUBAC or OTULIN in solution, 1 h at room temperature; Cy5-streptavidin, scanned at 635 nm; BSA as negative control; hits: Z-score >= 3 and I_(Mean_Ratio) >= 1.4; both purified
TMEM116 (human) = TMEM116 (human) (UniProt Q8NCL8)
CSTF2T (human) = target: T1, CSTF2T (human) (UniProt Q9H0L4)
T1 sequence: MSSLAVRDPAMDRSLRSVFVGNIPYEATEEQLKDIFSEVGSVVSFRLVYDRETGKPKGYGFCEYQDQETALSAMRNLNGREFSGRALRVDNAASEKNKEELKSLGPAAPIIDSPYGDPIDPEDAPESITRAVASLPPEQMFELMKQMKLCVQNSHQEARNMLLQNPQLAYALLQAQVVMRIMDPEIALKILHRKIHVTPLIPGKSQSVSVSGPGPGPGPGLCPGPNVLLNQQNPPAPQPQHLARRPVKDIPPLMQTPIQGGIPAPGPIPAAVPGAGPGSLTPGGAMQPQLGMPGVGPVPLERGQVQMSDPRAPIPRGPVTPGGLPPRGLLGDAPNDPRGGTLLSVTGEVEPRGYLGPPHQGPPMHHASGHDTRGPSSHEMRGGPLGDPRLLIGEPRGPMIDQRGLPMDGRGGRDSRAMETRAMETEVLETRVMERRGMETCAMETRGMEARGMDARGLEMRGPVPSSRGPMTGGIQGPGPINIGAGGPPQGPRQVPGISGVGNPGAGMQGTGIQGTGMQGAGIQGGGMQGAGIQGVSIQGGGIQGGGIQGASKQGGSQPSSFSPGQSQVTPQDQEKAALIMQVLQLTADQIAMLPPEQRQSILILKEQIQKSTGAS

By UniProt entry, the sequences of proteins in these tests, tags left out.
UniProt Q8NCL8: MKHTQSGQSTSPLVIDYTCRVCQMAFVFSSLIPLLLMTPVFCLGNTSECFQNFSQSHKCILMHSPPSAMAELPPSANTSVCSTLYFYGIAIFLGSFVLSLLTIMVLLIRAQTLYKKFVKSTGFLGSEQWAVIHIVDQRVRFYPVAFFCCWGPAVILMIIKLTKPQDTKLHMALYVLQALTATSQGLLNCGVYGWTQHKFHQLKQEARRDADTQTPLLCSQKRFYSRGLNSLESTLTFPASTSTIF
UniProt Q9BRJ7: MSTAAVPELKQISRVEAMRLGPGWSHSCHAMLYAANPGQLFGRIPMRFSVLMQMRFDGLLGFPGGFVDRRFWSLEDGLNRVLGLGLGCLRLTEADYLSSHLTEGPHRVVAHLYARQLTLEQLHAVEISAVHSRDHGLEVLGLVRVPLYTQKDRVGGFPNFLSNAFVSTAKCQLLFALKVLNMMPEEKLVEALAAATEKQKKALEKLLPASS
UniProt O95922: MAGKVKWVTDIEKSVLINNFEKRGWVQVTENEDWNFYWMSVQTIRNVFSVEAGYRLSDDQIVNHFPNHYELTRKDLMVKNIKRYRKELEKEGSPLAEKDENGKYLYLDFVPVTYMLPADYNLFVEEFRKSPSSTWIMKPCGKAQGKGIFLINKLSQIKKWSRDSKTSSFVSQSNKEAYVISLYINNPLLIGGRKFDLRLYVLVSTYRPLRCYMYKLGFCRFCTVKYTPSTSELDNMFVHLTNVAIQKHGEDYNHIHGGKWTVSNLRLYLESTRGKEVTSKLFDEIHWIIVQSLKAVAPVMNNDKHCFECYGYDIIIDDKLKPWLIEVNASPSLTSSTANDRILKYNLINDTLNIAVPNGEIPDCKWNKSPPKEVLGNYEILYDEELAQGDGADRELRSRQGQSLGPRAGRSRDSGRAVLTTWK

NUDT16L1 (human) = NUDT16L1 (human) (UniProt Q9BRJ7)
TRMT2A (human) = target: T2, TRMT2A (human) (UniProt Q8IZ69)
T2 sequence: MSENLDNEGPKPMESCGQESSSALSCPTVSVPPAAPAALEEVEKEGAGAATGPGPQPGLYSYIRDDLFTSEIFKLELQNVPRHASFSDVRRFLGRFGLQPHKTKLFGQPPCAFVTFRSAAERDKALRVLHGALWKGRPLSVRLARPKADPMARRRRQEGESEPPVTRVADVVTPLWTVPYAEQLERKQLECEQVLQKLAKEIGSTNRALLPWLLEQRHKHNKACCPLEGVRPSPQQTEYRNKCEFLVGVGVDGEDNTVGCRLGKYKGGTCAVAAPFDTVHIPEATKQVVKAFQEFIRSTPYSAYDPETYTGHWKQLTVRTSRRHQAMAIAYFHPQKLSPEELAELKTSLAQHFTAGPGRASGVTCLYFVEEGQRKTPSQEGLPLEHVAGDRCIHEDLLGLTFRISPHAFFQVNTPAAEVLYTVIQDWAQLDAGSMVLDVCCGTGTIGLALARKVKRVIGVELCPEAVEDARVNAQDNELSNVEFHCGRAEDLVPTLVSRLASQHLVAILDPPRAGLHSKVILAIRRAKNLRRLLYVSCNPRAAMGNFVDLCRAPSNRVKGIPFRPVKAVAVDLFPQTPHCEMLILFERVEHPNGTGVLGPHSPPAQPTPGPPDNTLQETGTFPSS

ACOT7 (human) = target: T3, ACOT7 (human) (UniProt O00154)
T3 sequence: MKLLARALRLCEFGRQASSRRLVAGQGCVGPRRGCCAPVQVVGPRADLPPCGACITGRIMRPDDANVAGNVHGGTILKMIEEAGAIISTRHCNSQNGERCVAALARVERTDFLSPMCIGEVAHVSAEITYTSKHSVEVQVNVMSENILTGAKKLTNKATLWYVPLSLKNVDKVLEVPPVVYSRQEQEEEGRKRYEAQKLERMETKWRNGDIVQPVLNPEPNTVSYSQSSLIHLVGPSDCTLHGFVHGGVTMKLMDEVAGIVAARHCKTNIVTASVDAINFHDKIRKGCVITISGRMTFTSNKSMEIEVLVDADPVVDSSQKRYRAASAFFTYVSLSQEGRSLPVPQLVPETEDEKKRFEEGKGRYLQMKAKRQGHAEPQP

TST (human) = target: T4, TST (human) (UniProt Q16762)
T4 sequence: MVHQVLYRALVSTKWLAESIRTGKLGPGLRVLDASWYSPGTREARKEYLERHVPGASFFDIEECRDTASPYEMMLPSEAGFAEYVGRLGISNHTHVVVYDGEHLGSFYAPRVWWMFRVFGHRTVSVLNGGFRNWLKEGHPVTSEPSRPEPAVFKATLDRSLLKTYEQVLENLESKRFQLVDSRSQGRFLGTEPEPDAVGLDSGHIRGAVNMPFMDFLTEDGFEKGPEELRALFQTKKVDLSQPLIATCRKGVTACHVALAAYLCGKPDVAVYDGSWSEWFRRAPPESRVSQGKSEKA

TTLL1 (human) = TTLL1 (human) (UniProt O95922)

- binding (TMEM116 (human)): binds
- binding (CSTF2T (human)): binds
- binding (NUDT16L1 (human)): binds
- binding (TRMT2A (human)): binds
- binding (ACOT7 (human)): binds
- binding (TST (human)): binds
- binding (TTLL1 (human)): binds
Substance: linear ubiquitin chain assembly complex (LUBAC), purified as HIS-tagged HOIP with the subunit HOIL-1, biotin-labelled (from UniProt Q96EP0 1-1072; Q9BYM8 1-510)
